Results from article PMC7772139.

B1: mTERF8/PTAC15 (protein, UniProt Q9FK23 1-500)
chain: MVILSLVSCSFSVFSPPISLRLHLPPVTSLCSHGTFPASSTFRSQLQPLLISCLNHREPALTFRCSCLSSPIESGSQIESLFSLFRDIGFIEEETEMILAKNPDIKSTSLDKIGARVASLQSLKINGFPLQGLIAKCPNLLTSEEFDLVISFLVDELEGRLDPELVERLLSVVDTSILLSFNQKVRLLLLHGIPKEKISHVLNKVYLNKLLYQKSVEDIERLISFLEPFGGIGIIARRPVILNSDLDSQLIPRVDFIRNLSGEDDFATGTVLRRLPAILSYSVEHMNGQVEFLKSFAGLTSEQVFKIVHVFPNVISTSKERKLRPRIEFLKECGFDSPGMFKFLSKAPLILALSENNLSHKLGFLVKIGYKHRTKELAFAMGAVTRTSSDNMQRVIGLYLSYGLSFEDILAMSTKHPQVLQYNYTSLEEKLEYLIEYMGREVEELLAFPAFLGYKLDSRIKHRYEEKLKSRGENMSLNKLLTVSAERFSKAADNIEMICL
B2: mTERF9 (protein, UniProt Q9FM80 1-496)
chain: MAGFSLYCFKNPRILFTLPSESPLFVLGSDKCSPATRRPSRKTRGFVVTYAHSNPKIINPKKKSRYGQTLSPYDSDEDDDDDDDDDDDDWLLNDDFAEVTEYEKKKPKSHKQTIAKKSVKKGIVKPEESETDEDDLDLGISPNATSEKKKESWRLDGRGKMSSRKYVEKLYPRLAEEIDIDPKCVPLLDYLSTFGLKESHFVQMYERHMPSLQINVFSAQERLDYLLSVGVKHRDIKRMLLRQPQILQYTVENNLKAHISFLMGLGIPNSKIGQIVAATPSLFSYSVENSLRPTIRYLIEEVGIKETDVGKVVQLSPQILVQRLDITWNTRYMFLSKELGAPRDSVVKMVKKHPQLLHYSIDDGFLPRINFLRSIGMCNSDILKVLTSLTQVLSLSLEDNLKPKYMYLVNELNNEVHILTKYPMYLSLSLDQRIRPRHRFLVELKKVRKGPFPLSSLVPNDESFCQQWAGTSVDTYLAFRQRLLLKEFANKYDKRG
B3: rpoC1 (protein, UniProt P56763 1-680)
chain: MIDRYKHQQLRIGLVSPQQISAWATKIIPNGEIVGEVTKPYTFHYKTNKPEKDGLFCERIFGPIKSGICACGNYRVIGDEKEDPKFCEQCGVEFVDSRIRRYQMGYIKLTCPVTHVWYLKRLPSYIANLLDKPLKELEGLVYCDFSFARPITKKPTFLRLRGSFEYEIQSWKYSIPLFFTTQGFDIFRNREISTGAGAIREQLADLDLRIIIENSLVEWKQLGEEGPTGNEWEDRKIVRRKDFLVRRMELAKHFIRTNIEPEWMVLCLLPVLPPELRPIIQIEGGKLMSSDINELYRRVIYRNNTLTDLLTTSRSTPGELVMCQEKLVQEAVDTLLDNGIRGQPMRDGHNKVYKSFSDVIEGKEGRFRETLLGKRVDYSGRSVIVVGPSLSLHRCGLPREIAIELFQTFVIRGLIRQHLASNIGVAKSQIREKKPIVWEILQEVMQGHPVLLNRAPTLHRLGIQSFQPILVEGRTICLHPLVCKGFNADFDGDQMAVHVPLSLEAQAEARLLMFSHMNLLSPAIGDPISVPTQDMLIGLYVLTSGTRRGICANRYNPCNRKNYQNERIYETNYKYTKEPFFCNSYDAIGAYRQKKINLDSPLWLRWQLDQRVIASREVPIEVHYESFGNYHEIYAHYLIVRSVKKENFCIYIRTTVGHISFYREIEEAIQGFSQACSYDT
B4: rpoC2 (protein, UniProt P56764 1-1376)
chain: MAERANLVFHNKVIDGTAIKRLISRLIDHFGMAYTSHILDQVKTLGFQQATATSISLGIDDLLTIPSKGWLVQDAEQQSWILEKHHHYGNVHAVEKLRQSIEIWYATSEYLRQEMNPNFRMTDPFNPVHMMSFSGARGNASQVHQLVGMRGLMSDPQGQMIDLPIQSNLREGLSLTEYIISCYGARKGVVDTAVRTSDAGYLTRRLVEVVQHIVVRRTDCGTIRGISVSPRNKNRMMSERIFIQTLIGRVLADDIYIGSRCVAFRNQDLGIGLVNRLITFGTQSISIRTPFTCRSTSWICRLCYGRSPTHGDLVELGEAVGIIAGQSIGEPGTQLTLRTFHTGGVFTGGTAEHVRAPYNGKIKFNEDLVHPTRTRHGHPAFLCYIDLSVIIESEDIIHSVTIPPKSFLLVQNDQYVESEQVIAEIREGTYTFHFKERVRKYIYSDSEGEMHWSTDVSHAPEFTYSNVHLLPKTSHLWILSGGSCGSSLIRFSIHKDQDQMNIPFLSAERKSISSLSVNNDQVSQKFFSSDFADPKKLGIYDYSELNGNLGTSHYNLIYSAIFHENSDLLAKRRRNRFLIPFQSIQEQEKEFIPQSGISVEIPINGIFRRNSIFAFFDDPRYRRKSSGILKYGTLKADSIIQKEDMIEYRGVQKIKTKYEMKVDRFFFIPEEVHILPESSAIMVQNYSIIGVDTRLTLNIRSQVGGLIRVEKKKKRIELKIFSGDIHFPDKTDKISRHSGILIPPGRGKKNSKESKKFKNWIYVQRITPTKKKFFVLVRPVATYEIADSINLATLFPQDLFREKDNIQLRVFNYILYGNGKPTRGISDTSIQLVRTCLVLNWDKNSSLEEVRAFFVEVSTKGLIQDFIRIGLVKSHISYIRKRNNSPDSGLISADHMNPFYSISPKSGILQQSLRQNHGTIRMFLNRNKESQSLLILSSSNCFRMGPFNHVKHHNVINQSIKKNTLITIKNSSGPLGTATPISNFYSFLPLLTYNQISLIKYFQLDNLKYIFQKINSYLIDENGIILNLDPYSNVVLNPFKLNWYFLHQNYHHNYCEETSTIISLGQFFCENVCIAKKEPHLKSGQVLIVQRDSAVIRSAKPYLATPGAKVHGHYSEILYEGDTLVTFIYEKSRSGDITQGLPKVEQVLEVRSIDSISLNLEKRIKGWNKCITRILGIPWGFLIGAELTIVQSRISLVNKIQKVYRSQGVQIHNRHIEIIVRQITSKVLVSEEGMSNVFLPGELIGLLRAERTGRALEEAICYRAVLLGITRASLNTQSFISEASFQETARVLAKAALRGRIDWLKGLKENVVLGGVIPAGTGFNKGLVHCSRQHTNIILEKKTKNLALFEGDMRDILFYHREFCDSSISKSDFSRI
B5: PAP2/PTAC2 (protein, UniProt Q9S7Q2 1-862)
chain: MNLAIPNPNSHHLSFLIQNSSFIGNRRFADGNRLRFLSGGNRKPCSFSGKIKAKTKDLVLGNPSVSVEKGKYSYDVESLINKLSSLPPRGSIARCLDIFKNKLSLNDFALVFKEFAGRGDWQRSLRLFKYMQRQIWCKPNEHIYTIMISLLGREGLLDKCLEVFDEMPSQGVSRSVFSYTALINAYGRNGRYETSLELLDRMKNEKISPSILTYNTVINACARGGLDWEGLLGLFAEMRHEGIQPDIVTYNTLLSACAIRGLGDEAEMVFRTMNDGGIVPDLTTYSHLVETFGKLRRLEKVCDLLGEMASGGSLPDITSYNVLLEAYAKSGSIKEAMGVFHQMQAAGCTPNANTYSVLLNLFGQSGRYDDVRQLFLEMKSSNTDPDAATYNILIEVFGEGGYFKEVVTLFHDMVEENIEPDMETYEGIIFACGKGGLHEDARKILQYMTANDIVPSSKAYTGVIEAFGQAALYEEALVAFNTMHEVGSNPSIETFHSLLYSFARGGLVKESEAILSRLVDSGIPRNRDTFNAQIEAYKQGGKFEEAVKTYVDMEKSRCDPDERTLEAVLSVYSFARLVDECREQFEEMKASDILPSIMCYCMMLAVYGKTERWDDVNELLEEMLSNRVSNIHQVIGQMIKGDYDDDSNWQIVEYVLDKLNSEGCGLGIRFYNALLDALWWLGQKERAARVLNEATKRGLFPELFRKNKLVWSVDVHRMSEGGMYTALSVWLNDINDMLLKGDLPQLAVVVSVRGQLEKSSAARESPIAKAAFSFLQDHVSSSFSFTGWNGGRIMCQRSQLKQLLSTKEPTSEESENKNLVALANSPIFAAGTRASTSSDTNHSGNPTQRRTRTKKELAGSTA
B6: PAP3/PTAC10 (protein, UniProt F4JF21 1-668)
chain: MQICQTKLNFTFPNPTNPNFCKPKALQWSPPRRISLLPCRGFSSDEFPVDETFLEKFGPKDKDTEDEARRRNWIERGWAPWEEILTPEADFARKSLNEGEEVPLQSPEAIEAFKMLRPSYRKKKIKEMGITEDEWYAKQFEIRGDKPPPLETSWAGPMVLRQIPPRDWPPRGWEVDRKELEFIREAHKLMAERVWLEDLDKDLRVGEDATVDKMCLERFKVFLKQYKEWVEDNKDRLEEESYKLDQDFYPGRRKRGKDYEDGMYELPFYYPGMVCEGTVTTLHLYQGAFVDIGGVHEGWVPIKGNDWFWIRHFIKVGMHVIVEITAKRDPYRFRFPLELRFVHPNIDHMIFNKFDFPPIFHRDGDTNPDEIRRDCGRPPEPRKDPGSKPEEEGLLSDHPYVDKLWQIHVAEQMILGDYEANPAKYEGKKLSELSDDEDFDEQKDIEYGEAYYKKTKLPKVILKTSVKELDLEAALTERQHHNKLMMEAKARGEGYKIDKLRRNIEMDEYDFLHWRRSLEEREALLRDISSRQALGLPLEEPGRYKPGSFFGKDQYDPTSALYQYDYWGEPKNSEISKQERMKDAHNKSIVGKGNVWYDMSYDDAIKQTIEKRKEGSTLASQEEETESEEEEEDDDDFDDFDYSILSDESSIGYSEQQPLVNGTQVLTD
B7: PAP6/FLN1 (protein, UniProt Q9M394 1-471)
chain: MASLLIFPHLHHFDSSLDRREVLVVRHSQASRRFLTPKASINGSGITNGAAAETTSKPSRKGRKKKQTSTVIEKDNTETDPELNPELADYDDGIEFPYDDPPLVCCFGAVQKEFVPVVRVHDNPMHPDMYSQWKMLQWDPPEFGRAPGGPPSNVAISHVRLGGRAAFMGKVGEDDFGDELVLMMNQERVQTRAVKFDENSKTACTRVKIKFKDGKMMAETVKEPPEDSLFASELNLAVLKEARIFHFNSEVLTSPTMQSTLFTAIQWSKKFGGLIFFDLNLPLPLWRSRNETRKLIKKAWNEANIIEVSQQELEFLLDEDYYERRRNYTPQYFAEDFDQTKNRRDYYHYTPEEIKSLWHDKLKLLVVTDGTLRLHYYTPTFDGVVIGTEDVLITPFTCDRTGSGDAVVAGIMRKLTTCPEMFEDQDVMERQLRFAVAAGIIAQWTIGAVRGFPTESATQNLKEQVYVPSMW
B8: FLN2 (protein, UniProt F4I0K2 1-614)
chain: MASLSFTQFLSFPRCNADVPCLLQSHGFVKFRGERWNGKQSFSMAAGRRKLSESAPLEEEGNDGNGAVVGKKPSKSVKRTTKKKVVVKDEPLEEISEFLVDNDDVLDKESIVSALKPKKTRTRKKAAAASSDVEEVKTEKKVRRKRTVKKDKDVEDDLATIMDAEVSDVEEALAVESTDTESEEEEIDLSKHEGEDISHTYGWPPLVCCFGSAQHAFVPSGRPANRLLDYELHERMRDAKWAPEKYIRAPGGCAGGVAIALASLGGKVAFMGKLGADDYGQAMLYYLNVCKVQTRSVKIDGKRVTACSTMKISKRGRLKSTCIKPCAEDSLSKSEINVDVLKEAKMFYFSTHSLLDKKMMSTTIQAIKISKQLGNVIFYDLNLPLPLWHSSEETKSFIQEVWNLADVIEITKQELEFLCGIEPTEEFDTENNDISKFVHYPPETVEQLWHENLKVLFVTNGTSKIHYYTKEHNGAVSGMEDVPITPFTRDMSASGDGIVAGLIRMLTVQPDLMNNKGYLERTARYAIECGIIDQWLLAQTRGYPPKDDMEEEEDDEEEDEVESDPNGIRSITEKEYRTSKPYDEPDGPYVMKPVEEREYKKLELVGSMFEDGSL
B9: PAP12/PTAC7 lacking the N-terminal transit peptide, His fusion (protein, UniProt Q8VZV9 33-161)
chain: CGIQRDDNGRRVWRRRTLTKKDDMLRYKMQRVPFVEEQVRKIREVGKVMTMDIEQLLLREDNRFEFVNSVAAEATEYVDKNRDEYGGSKKAIFHVLSNRVNDLGFDRPEAYVEADPYKPGPGYLLEYYT

Each binder was assayed against Seedling Lethal 1 (SL1/mTERF3) (Arabidopsis thaliana) (assay: two-hybrid; SL1 as bait (GAL4 DNA binding domain, pGBKT7), PEP complex proteins and chloroplast mTERF proteins as prey (GAL4 activation domain, pGADT7); yeast strain Y2H Gold; growth on SD/-Trp-Leu, SD/-Trp-Leu-His and SD/-Trp-Leu-His-Ade).

| Binder | binding |
| --- | --- |
| B1 | no binding |
| B2 | no binding |
| B3 | no binding |
| B4 | no binding |
| B5 | no binding |
| B6 | no binding |
| B7 | no binding |
| B8 | no binding |

These binders were tested against SL1 lacking the N-terminal transit peptide (GST-SL1; His fusion of SL1) (Arabidopsis thaliana) (assay: pull-down; GST-SL1 coupled to glutathione resin, incubated with His fusion proteins; PBS pH 7.4; washed with PBS pH 7.4, 0.5% Triton X-100, 0.5 mM PMSF; bound proteins detected by Western blot with anti-His).

| Binder | binding |
| --- | --- |
| B9 | binds |

These are yes or no findings as the source states them, for the method shown. For part of these data: Binding seen in cells or lysates may run through a third protein. For part of these data: Binding calls can cover weak binding; strength is not graded here. For part of these data: Tags and fused reporters may be left off the sequences shown.
